# Results from publication PMC5384328.
# Chains of the proteins cited; added tags and fusions are not shown.
# UniProt P52701: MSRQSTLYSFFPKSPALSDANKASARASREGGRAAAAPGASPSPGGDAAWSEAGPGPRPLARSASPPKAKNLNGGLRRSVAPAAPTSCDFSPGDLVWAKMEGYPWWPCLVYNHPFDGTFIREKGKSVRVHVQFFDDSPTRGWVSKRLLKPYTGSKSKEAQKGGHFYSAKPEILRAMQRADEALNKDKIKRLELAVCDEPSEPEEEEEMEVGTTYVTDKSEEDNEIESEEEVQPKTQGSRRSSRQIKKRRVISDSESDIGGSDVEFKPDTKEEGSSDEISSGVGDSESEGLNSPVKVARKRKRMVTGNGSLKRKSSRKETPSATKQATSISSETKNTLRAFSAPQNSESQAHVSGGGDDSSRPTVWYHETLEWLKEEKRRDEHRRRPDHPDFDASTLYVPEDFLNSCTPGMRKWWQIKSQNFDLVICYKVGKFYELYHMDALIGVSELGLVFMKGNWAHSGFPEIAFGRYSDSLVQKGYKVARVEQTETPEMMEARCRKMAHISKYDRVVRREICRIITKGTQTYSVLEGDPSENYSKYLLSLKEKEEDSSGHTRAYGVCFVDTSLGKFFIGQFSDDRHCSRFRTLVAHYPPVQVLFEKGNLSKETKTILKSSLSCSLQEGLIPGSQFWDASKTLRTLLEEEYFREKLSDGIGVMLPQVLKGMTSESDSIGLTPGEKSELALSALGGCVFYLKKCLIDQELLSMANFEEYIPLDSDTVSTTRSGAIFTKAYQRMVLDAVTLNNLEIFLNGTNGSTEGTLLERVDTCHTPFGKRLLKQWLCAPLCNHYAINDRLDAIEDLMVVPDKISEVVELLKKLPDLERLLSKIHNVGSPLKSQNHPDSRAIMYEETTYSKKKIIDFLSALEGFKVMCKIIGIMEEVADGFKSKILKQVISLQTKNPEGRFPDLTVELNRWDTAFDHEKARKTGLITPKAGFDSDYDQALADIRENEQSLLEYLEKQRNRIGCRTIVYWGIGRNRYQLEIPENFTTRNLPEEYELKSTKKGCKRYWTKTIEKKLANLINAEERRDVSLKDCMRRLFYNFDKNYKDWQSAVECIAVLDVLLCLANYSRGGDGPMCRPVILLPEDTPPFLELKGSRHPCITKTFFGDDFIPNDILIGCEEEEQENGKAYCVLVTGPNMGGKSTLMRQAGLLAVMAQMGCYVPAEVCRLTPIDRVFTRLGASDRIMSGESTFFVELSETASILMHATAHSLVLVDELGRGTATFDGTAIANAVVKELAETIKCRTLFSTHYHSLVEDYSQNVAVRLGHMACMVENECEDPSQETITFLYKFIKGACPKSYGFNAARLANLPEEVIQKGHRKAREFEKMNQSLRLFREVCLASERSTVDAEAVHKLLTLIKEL
# UniProt P55060: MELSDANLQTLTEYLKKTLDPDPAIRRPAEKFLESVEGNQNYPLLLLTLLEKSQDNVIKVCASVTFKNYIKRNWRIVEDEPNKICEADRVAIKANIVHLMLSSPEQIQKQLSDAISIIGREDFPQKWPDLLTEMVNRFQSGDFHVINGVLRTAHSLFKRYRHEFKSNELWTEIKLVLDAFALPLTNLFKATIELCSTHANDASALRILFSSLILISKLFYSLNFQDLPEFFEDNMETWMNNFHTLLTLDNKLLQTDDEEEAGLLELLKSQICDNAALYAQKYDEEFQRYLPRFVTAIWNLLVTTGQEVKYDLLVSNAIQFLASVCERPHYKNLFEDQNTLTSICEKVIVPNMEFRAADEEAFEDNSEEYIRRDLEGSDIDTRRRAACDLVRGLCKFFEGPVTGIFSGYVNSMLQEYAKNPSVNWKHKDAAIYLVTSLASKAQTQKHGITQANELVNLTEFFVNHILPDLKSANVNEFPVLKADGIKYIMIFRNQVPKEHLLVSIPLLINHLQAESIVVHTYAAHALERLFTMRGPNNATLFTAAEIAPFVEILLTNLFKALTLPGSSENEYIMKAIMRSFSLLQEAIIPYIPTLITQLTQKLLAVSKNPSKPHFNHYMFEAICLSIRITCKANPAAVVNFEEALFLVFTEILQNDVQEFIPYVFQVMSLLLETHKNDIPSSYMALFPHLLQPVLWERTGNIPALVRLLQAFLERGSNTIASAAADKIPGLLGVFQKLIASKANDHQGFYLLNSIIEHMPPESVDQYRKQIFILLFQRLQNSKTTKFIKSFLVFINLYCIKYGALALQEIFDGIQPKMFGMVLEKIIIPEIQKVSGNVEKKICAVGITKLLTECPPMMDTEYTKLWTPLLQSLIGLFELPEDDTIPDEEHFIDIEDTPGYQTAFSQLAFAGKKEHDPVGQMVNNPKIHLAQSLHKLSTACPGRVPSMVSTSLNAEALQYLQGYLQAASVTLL
# Results are given in words; binding and its absence hold for the method and conditions named. Binding seen in cells or lysates may run through a third protein. Some binding calls cover weakened binding; strength is not graded here.
# Assays:
# [1] = biological target: mutS homolog 6 (MSH6) (human (endogenous in MNNG/HOS and U2OS)) (UniProt P52701); experiment: co-IP; whole-cell lysates of MNNG/HOS and U2OS (3000 ug protein) immunoprecipitated with anti-CSE1L or anti-MSH6 antibody at 4 °C overnight, protein A/G magnetic beads, washed with PBS containing 1% Triton X-100; immunoblotting; IgG as negative control
# [2] = biological target: chromosome segregation 1-like (CSE1L) protein (human (endogenous in MNNG/HOS and U2OS)) (UniProt P55060); experiment: as above
binding [1],binding [2],Substance
binds,–,chromosome segregation 1-like (CSE1L) protein (from UniProt P55060 1-971)
–,binds,mutS homolog 6 (MSH6) (from UniProt P52701 1-1360)
